No constants are given. Whether binding was seen depends on the method and setting. Binding seen in cells or lysates may run through a third protein. Some entries that bind do so weakly or less than the wild type. For part of these data: Sequences can lack the tags named with a protein. Values belong to the molecule of their own block, whether it stands above or below them.
Assays:
[1] = target: T1, ephrin-B1 (wild type) (UniProt P52795); assay: pull-down + co-IP; cells lysed in RIPA buffer; which of the two precipitations was done is not told
T1 sequence: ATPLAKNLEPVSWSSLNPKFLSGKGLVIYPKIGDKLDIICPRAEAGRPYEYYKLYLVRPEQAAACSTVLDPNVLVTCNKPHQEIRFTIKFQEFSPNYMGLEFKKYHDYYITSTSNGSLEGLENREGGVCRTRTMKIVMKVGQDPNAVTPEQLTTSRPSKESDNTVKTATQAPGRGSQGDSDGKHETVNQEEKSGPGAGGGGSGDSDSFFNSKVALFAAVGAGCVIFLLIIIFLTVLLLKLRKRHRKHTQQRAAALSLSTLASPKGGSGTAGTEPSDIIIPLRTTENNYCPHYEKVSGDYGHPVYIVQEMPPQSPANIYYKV

Chains of the proteins cited; added tags and fusions are not shown.
UniProt P23242: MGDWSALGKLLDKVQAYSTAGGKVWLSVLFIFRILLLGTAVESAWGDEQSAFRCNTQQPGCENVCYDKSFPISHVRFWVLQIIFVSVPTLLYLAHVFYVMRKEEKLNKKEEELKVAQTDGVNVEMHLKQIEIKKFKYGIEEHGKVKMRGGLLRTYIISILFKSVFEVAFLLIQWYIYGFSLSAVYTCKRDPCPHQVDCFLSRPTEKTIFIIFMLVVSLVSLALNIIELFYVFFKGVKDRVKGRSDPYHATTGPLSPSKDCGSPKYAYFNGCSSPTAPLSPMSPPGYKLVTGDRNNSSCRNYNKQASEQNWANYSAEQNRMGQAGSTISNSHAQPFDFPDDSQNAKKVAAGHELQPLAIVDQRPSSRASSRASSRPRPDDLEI

[2] = target: T2, ephrinB1-Fc (extracellular domain of ephrin-B1 fused to the Fc fragment of human IgG) (UniProt P52795); assay: pull-down; ephrinB1-Fc incubated with lysates of NIH 3T3 cells expressing ephrin-B1; Western blot for Cx43; only the target purified
T2 sequence: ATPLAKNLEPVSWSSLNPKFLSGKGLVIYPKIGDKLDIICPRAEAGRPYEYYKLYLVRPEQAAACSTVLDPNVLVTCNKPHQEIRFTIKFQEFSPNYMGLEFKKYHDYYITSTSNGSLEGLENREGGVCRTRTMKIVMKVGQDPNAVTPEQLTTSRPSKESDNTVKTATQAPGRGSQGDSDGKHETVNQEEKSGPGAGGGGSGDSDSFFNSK

[3] = target: T1, ephrin-B1 (wild type); assay: pull-down; EphB2-Fc added to lysates of NIH 3T3 cells transiently transfected with wild-type ephrin-B1 or ephrin-B1^ΔPDZ, then ProteinA-Sepharose; lysis buffer of Figure 7A (100 mM Tris pH 7.4, 150 mM NaCl, 1 mM EDTA); Western blot for Cx43
[4] = target: T1, ephrin-B1 (wild type); assay: pull-down; EphB2-Fc (5 ug) added to lysate of NIH 3T3 cells expressing ephrin-B1, 4 h at 4 °C, then ProteinA-Sepharose; 1% NP40 lysis buffer (50 mM Hepes pH 7.5, 150 mM NaCl, 10% glycerol, 1.5 mM MgCl2, 1 mM EGTA, 100 mM NaF); Western blot for Cx43
[5] = target: T3, EphB2-Fc (extracellular domain of Eph-B2 receptor fused to the Fc fragment of human IgG) (UniProt P54763); assay: pull-down; EphB2-Fc (5 ug) added to lysate of NIH 3T3 cells expressing ephrin-B1, 4 h at 4 °C, then ProteinA-Sepharose; 1% NP40 lysis buffer; only the target purified
T3 sequence: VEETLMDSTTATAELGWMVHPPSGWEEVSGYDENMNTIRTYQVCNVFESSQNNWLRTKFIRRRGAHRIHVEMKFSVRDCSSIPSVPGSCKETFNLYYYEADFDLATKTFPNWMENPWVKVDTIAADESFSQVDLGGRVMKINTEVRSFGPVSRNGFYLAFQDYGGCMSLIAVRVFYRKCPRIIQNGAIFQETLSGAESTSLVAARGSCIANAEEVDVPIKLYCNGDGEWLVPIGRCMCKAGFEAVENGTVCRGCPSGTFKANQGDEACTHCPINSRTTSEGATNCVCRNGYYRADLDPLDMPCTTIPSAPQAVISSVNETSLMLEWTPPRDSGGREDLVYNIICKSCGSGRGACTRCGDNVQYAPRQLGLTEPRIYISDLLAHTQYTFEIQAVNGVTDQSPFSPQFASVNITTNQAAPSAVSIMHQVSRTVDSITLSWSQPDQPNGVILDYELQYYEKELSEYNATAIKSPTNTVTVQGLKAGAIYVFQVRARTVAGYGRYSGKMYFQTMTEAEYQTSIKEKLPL

[6] = target: connexin43 (mouse (endogenous in NIH 3T3)) (UniProt P23242); assay: co-IP; Cx43 monoclonal antibody (4 ug) added to lysate of NIH 3T3 cells expressing ephrin-B1, 4 h at 4 °C, then ProteinA-Sepharose; 1% NP40 lysis buffer; Western blot for ephrin-B1

binding [2]: no binding
binding [3]: binds
binding [4]: binds
Molecule: connexin43 (from UniProt P23242 1-382)
binding [1]: no binding (condition: lysis in RIPA buffer)

binding [5]: binds
binding [6]: binds
B1: ephrin-B1 (wild type) (ligand, UniProt P52795 25-345)
chain: T1 sequence
